Data on 17 compounds can be found in PubChem BioAssay AID2685 (National Center for Advancing Translational Sciences (NCATS), 2010).

The AC50 is the concentration at which the activity in the assay is half-maximal. Low readings indicate greater potency, high ones weaker potency.

This experiment is described as follows: qHTS Assay for Lipid Storage Modulators in Drosophila S3 Cells.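 For cell number change: cells counted by Cell Tracker Red CMTPX staining in the red channel.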 Particulars: BODIPY lipid droplet fluorescence, 18-24 h; for cell number change: measured here: cell count max response, cells fed with added oleic acid. Summed up:
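Drosophila S3 cells got compounds at several concentrations plus oleic acid (400 uM solution). Laser-scanning cytometry with 488 nm excitation read lipid droplets at 500-530 nm and cells at 575-640 nm. Percent activity was relative to 20 uM Triacsin C.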
On the technique in general: qHTS replaces the single test concentration by a dilution series.

[1] abbreviates: measured here: lipid fluorescence (Fed channel) AC50, cells fed with added oleic acid.
The mark [2] stands for this setting: measured here: cell number channel AC50, cells fed with added oleic acid.

“And” between values parts separate entries of the source, which are not always exact repeats. Equal values may be shown once. The list shows a part of the results. Shown are side measurements of this screen, not its main read-out; they come without a call. The list favours compounds with an active or inconclusive main result. Potencies come from curve fits of mixed quality, noted in brackets.

Regarding `O=C(Cc1n[nH]c(=O)c2ccccc12)Nc1cc(C(F)(F)F)ccc1-n1cncn1`, the AC50 under setting [1] was 0.461 µM [rising, partial curve, poor fit].

Regarding `CS(=O)(=O)c1ccc(Sc2nc3ccccc3[nH]2)c([N+](=O)[O-])c1`, the cell number change was -26.2%.

Take `NC(=O)c1cccc(-c2noc(-c3ccccc3F)n2)c1`: the cell number change is -23.6% and 48.8%. Under setting [2], the AC50 was 32.6 µM [rising, partial curve, poor fit]. In addition, the AC50 under setting [1] was 25.9 µM [falling, partial curve, poor fit].

With `CCN(CC(=O)Nc1ccc(NC(C)=O)cc1)C(=O)/C=C/c1c(C)nn(-c2ccc(F)cc2)c1C`, the cell number change was 63.7%. For the same compound, under setting [2], the AC50 is 5.17 µM [rising, partial curve]. Under setting [1], the AC50 was 10.3 µM [rising, partial curve].

For `C=Cn1cc[n+](CC(=O)c2ccc(Br)cc2)c1`, the cell number change is -6.59%. Moreover, under setting [1], the AC50 was 20.6 µM [falling, single point].

On to `O=C(c1ccccc1)c1cc(-c2ccccn2)c(N2CCOCC2)s1`, for which the cell number change came out at 10.9%. Further, the AC50 under setting [1] was 0.731 µM [rising, partial curve].

Turning to `COc1ccc(NCC(O)Cn2cnc3c2c(=O)n(C)c(=O)n3C)cc1` (configuration not stated), the cell number change is -13.8%.

On to `CCc1ccc(CN(C)CCc2ccccn2)cc1`, for which the cell number change was -72%. Besides, the AC50 under setting [2] is 29.1 µM [falling, single point].

As to `CN(Cc1cnn(C)c1)Cc1nc(Cc2ccccc2Cl)no1`, the cell number change stood at 19.7%.

`Cc1cc(=O)cc(C)n1-c1ccc(F)cc1F`: the cell number change is -47.1%. Further, under setting [2], the AC50 is 0.82 µM [falling, full curve]. Moreover, the AC50 under setting [1] was 0.92 µM [falling, full curve].

As for `COCCn1c(Cc2ccccc2)nnc1SC(C)C(=O)NC1CC1` (configuration not stated), the cell number change is 7.37%. Moreover, under setting [1], the half-maximal activity concentration (AC50) is 0.411 µM [falling, single point].

With `NS(=O)(=O)c1ccc(NC(=S)NC(=O)c2ccco2)cc1`, the cell number change was 21.6% and 4.54%. Also, the AC50 under setting [1] is 2.91 µM [rising, single point].

For `O=c1c2ccccc2ncn1Cc1ccccc1`, the cell number change was determined as 24.3%. For the same compound, the AC50 under setting [1] was 1.46 µM [rising, full curve, poor fit].

On to `COC(=O)[C@H](CC(C)C)NS(=O)(=O)c1ccccc1`, for which the cell number change came to 9.06%.

Take `Cc1cccc(NS(=O)(=O)c2cc3c4c(c2)CC(=O)N4CCC3)c1C`: the cell number change was -74.6%. The AC50 under setting [2] was 29.1 µM [falling, single point]. The AC50 under setting [1] is 29.1 µM [falling, single point].

As for `CCc1ccc(-c2nc(CSCC(=O)N3CCN(c4ncccn4)CC3)c(C)o2)cc1`, the AC50 under setting [1] is 4.11 µM [falling, single point].

With `CC(=O)c1ccc(N2C(=NC(=O)C3CCCCC3)SC3CS(=O)(=O)CC32)cc1` (configuration not stated), the cell number change is 15.3%. Under setting [1], the AC50 was 14.6 µM [falling, partial curve, poor fit].
